# Laboratory results from doi:10.1101/2025.09.08.674995.
# Chains of the proteins cited; added tags and fusions are not shown. Lines headed by an entry give the natural chain unless they say otherwise; changes in a name come on top.
# UniProt P50532: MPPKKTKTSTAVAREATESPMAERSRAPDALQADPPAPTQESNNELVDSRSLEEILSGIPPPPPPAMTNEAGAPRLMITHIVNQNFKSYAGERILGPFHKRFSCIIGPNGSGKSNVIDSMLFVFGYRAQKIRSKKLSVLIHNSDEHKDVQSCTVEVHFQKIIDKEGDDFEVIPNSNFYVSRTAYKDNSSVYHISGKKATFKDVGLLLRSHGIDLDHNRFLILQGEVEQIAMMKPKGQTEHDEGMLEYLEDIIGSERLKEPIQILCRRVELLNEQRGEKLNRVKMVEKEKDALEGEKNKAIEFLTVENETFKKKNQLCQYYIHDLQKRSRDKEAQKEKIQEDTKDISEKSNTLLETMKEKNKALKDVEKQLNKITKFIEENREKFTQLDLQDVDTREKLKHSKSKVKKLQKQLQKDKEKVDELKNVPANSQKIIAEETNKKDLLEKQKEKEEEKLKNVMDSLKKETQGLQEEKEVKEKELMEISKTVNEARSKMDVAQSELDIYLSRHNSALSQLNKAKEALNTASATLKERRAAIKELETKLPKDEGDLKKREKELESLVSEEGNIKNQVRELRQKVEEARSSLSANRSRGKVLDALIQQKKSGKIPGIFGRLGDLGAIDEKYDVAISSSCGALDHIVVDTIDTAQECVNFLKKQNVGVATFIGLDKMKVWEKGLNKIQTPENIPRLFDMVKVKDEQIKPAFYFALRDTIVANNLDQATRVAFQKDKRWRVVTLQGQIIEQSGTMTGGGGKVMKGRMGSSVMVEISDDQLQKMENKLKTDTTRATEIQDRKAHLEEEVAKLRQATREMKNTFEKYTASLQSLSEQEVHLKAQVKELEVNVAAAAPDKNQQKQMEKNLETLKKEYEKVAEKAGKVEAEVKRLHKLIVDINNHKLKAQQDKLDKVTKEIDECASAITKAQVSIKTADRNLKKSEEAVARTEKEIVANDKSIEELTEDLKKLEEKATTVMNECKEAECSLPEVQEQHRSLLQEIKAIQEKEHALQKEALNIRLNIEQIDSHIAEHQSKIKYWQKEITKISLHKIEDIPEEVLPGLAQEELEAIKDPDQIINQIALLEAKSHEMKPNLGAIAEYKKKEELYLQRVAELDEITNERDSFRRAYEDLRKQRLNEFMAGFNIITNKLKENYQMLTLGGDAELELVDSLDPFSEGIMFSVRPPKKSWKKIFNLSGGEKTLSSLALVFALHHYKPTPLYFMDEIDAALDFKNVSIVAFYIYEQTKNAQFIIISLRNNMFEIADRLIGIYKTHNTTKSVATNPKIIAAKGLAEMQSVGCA
# UniProt Q9YHY6: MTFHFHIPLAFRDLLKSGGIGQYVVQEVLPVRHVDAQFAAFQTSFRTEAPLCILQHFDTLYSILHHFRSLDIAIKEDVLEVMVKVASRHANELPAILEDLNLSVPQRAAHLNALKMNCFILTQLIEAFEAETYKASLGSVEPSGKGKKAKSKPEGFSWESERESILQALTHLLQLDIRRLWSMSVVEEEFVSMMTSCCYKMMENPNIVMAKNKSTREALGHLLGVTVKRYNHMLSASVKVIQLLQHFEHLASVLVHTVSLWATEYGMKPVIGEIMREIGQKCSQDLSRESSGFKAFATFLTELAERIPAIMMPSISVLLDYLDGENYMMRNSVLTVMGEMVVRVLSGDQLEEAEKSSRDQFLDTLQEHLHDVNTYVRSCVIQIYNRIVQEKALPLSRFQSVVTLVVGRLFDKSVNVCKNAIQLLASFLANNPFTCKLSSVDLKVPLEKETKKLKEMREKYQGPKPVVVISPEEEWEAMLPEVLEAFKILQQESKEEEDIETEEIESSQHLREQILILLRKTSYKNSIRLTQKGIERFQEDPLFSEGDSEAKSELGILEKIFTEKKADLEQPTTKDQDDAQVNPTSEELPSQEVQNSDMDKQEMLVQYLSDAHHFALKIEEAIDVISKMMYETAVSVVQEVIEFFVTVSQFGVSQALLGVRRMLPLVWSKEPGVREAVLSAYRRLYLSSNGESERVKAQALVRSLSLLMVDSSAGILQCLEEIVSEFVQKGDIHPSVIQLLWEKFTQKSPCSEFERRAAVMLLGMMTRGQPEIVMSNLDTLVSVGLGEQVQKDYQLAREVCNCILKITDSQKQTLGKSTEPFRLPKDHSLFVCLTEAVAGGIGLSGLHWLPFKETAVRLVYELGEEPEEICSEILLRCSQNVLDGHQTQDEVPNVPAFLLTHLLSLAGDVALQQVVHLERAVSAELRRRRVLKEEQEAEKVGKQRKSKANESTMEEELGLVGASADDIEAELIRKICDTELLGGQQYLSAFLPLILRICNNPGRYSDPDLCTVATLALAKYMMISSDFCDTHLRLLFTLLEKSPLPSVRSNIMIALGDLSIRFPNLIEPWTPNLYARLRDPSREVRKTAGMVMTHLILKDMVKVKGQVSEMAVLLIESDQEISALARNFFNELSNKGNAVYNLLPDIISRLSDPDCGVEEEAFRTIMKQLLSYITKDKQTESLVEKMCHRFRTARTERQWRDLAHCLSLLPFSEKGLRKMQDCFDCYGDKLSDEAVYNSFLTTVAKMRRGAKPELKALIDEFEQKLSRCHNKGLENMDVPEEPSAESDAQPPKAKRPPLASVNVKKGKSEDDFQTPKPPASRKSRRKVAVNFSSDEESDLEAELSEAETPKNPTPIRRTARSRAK
# UniProt P50533: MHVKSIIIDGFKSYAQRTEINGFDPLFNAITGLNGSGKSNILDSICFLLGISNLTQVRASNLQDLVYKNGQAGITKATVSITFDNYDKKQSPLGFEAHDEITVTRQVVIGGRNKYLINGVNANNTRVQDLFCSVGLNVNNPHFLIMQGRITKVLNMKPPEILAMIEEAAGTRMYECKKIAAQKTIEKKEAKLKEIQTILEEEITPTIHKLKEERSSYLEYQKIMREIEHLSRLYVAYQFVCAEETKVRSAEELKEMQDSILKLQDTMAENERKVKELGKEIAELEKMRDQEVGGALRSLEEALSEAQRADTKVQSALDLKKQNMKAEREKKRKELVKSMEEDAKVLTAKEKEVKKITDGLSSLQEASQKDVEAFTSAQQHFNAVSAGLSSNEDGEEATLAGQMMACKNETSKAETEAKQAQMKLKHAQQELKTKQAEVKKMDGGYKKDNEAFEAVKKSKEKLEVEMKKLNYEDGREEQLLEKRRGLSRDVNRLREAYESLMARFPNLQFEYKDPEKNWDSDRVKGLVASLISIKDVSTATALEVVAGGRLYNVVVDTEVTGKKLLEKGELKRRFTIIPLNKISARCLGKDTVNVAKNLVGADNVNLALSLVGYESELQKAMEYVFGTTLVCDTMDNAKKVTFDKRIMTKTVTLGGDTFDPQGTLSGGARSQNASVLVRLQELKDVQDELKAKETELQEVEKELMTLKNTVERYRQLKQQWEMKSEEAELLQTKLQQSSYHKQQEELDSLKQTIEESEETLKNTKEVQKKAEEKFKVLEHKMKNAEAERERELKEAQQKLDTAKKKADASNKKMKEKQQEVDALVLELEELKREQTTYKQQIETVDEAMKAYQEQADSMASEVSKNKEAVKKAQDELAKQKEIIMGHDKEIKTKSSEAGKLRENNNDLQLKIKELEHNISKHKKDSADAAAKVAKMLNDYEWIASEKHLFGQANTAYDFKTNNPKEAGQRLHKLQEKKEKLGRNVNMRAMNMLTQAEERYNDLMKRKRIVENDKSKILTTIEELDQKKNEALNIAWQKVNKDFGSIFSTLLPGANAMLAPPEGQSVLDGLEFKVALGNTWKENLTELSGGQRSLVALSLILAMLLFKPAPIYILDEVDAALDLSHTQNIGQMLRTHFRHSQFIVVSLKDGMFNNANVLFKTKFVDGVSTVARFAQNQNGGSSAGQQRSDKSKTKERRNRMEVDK
# Numbering of substitutions follows the chain as printed. Names and notes keep the numbering of the source. Results are given in words; binding and its absence hold for the method and conditions named. Some entries that bind do so weakly or less than the wild type.
# B1: Xenopus laevis condensin I subunit CAP-G, full-length (protein, UniProt Q9YHB5 1-1034)
# chain: MVKEGKAMEIKEAFDLSQKAHQNHAKLVSSLRAAYNKTEDKSIFLEEFIHFLKFPLIVYRREPAVERVMDFVAKFVTSFHNSGGENEEEADEENSPVNCLFNFLLQSHGASSMAVRFRVCQLINKLLVNLPENAQIDDDLFDKIHDAMLIRLKDRVPNVRIQAVLALARLQDPSDPDCPVSNAYVHLLENDSNPEVRRAVLTCIAPSAKSLPKIVGRTMDVKEPVRKLAYQVLSEKVHIRALTIAQRVKLLQQGLNDRSAAVKDVIQKKLIQAWLQYSEGDVLDLLHRLDVENSPEVSLSALNALFSVSPVGELVQNCKNLDERKLIPVETLTPENVLYWRALCEHLKSKGDEGEAALENILPEPAVYARYLSSYLQTLPVLSEDQRADMTKIEDLMTKEFIGQQLILTIGCLDTSEEGGRKRLLAVLQEILVMQNTPTSLISSLAELLLFVLKDDDKRIQTVAEIISELREPIVTVDNPKDAAQSRKLQLKLADVKVQLIEAKQALEDSLTNEDYSRASELKEKVKELESLKTQLIKEAEEPEMKEIRVEKNDPETLLKCLIMCNELLKHLSLSKGLGGTLNEICESLILPGITNVHPSVRNMAVLCIGCCALQNKDFARQHLPLLLQILQLDEVKVKNSALNAVFDMLLLFGMDILKSKPTNPDDSQCKAQENADEDISEQEKPGSVDENLTNEEVQEETATVNGILHLFSGFLDSEIAEIRTETAEGLVKLMFSGRLISAKLLSRLILLWYNPVTEEDTKLRHCLGVFFPIFAYSCRSNQECFAEAFLPTLQTLFNAPASSPLADVDVANVAELLVDLTRPSGLNPQNKQSQDYQAAMVHDGLAIKICNEILKDPTAPDVRIYAKALCSLELSRENSTDLLPLLDCAVEDVTDKVCERAIEKVRSQLRSGREEHRVSKETEPQVSKETEDRTNLQENEEGKQKDEANCDENTDTVKEKAARGKATKGRRKGPAAAATRRKASKAEEAEAEMERQEESQCVPVNTRPSRRAKTAALEKTKKNLSKLLNEEAN
# B2: Xenopus laevis condensin I subunit CAP-H, full-length (protein, UniProt O13067 1-699)
# chain: MSTSTPQSGGRRKPETPDSAFLSPATRPQPISAAATPTLLNFTSNDDERERKLRRMSRVIDLQLSNANSPATAISPAQSRGADTPTSLLPKLNNTQISDHYSTCIKLSQENKITTKNAFGLHLIDYMGDILKHKDSELTNFKVAAGTLDASAKIYAVRVDAVHADVYKVLGGLGKESQATEDTENQETDTGPQDGRKNPKRRKCSYKTIERNLNSINRSETERKSEIDPLFQKAAASFDEFSTAGVFLSTLKCHSYHSELHFDADVKPLSTAEETEPPSPGSMDSTELKSLFLQCVEKRPLCPSLSGFRFMQWNSDAQNENLSLLMDKFKKSDHVFDINAEVEDDFVESEAPVADEFDADVCEGMDAGDIGEFAEHREACRLERKGAQLTQIGNGDIGTMCLQLSSCPGEYSYFSPRTMSMWAGPEHWRFRPRQKASTDSDQQRVKKAKKVFELNFEDDIDFEVHFRKTRAATTLTKSTLESQNKKSTTLPADFHYDPDNIARMSLRPKDRIRKTTVQESVSEPEDDIGDYDYNNPNDTSNFCPALQAADSDDDDGAFLGPESNSAGFSAENQMNITSYGESNLVAGQKVNKIEIQYAKTAKKMDMKRLKSSMWSLLANCPESQEEMPSSKEEIDAALITDEQVFSSVTHGLQKRLPPVMAQNLSVPLAFACLLHLANEKNLKLQGMDDLSDVMIMQDD
# B3: Xenopus laevis CAP-G lacking the C-terminal 101 amino acids (CAP-G_ΔCt101) (domain or fragment, UniProt Q9YHB5 1-933)
# chain: MVKEGKAMEIKEAFDLSQKAHQNHAKLVSSLRAAYNKTEDKSIFLEEFIHFLKFPLIVYRREPAVERVMDFVAKFVTSFHNSGGENEEEADEENSPVNCLFNFLLQSHGASSMAVRFRVCQLINKLLVNLPENAQIDDDLFDKIHDAMLIRLKDRVPNVRIQAVLALARLQDPSDPDCPVSNAYVHLLENDSNPEVRRAVLTCIAPSAKSLPKIVGRTMDVKEPVRKLAYQVLSEKVHIRALTIAQRVKLLQQGLNDRSAAVKDVIQKKLIQAWLQYSEGDVLDLLHRLDVENSPEVSLSALNALFSVSPVGELVQNCKNLDERKLIPVETLTPENVLYWRALCEHLKSKGDEGEAALENILPEPAVYARYLSSYLQTLPVLSEDQRADMTKIEDLMTKEFIGQQLILTIGCLDTSEEGGRKRLLAVLQEILVMQNTPTSLISSLAELLLFVLKDDDKRIQTVAEIISELREPIVTVDNPKDAAQSRKLQLKLADVKVQLIEAKQALEDSLTNEDYSRASELKEKVKELESLKTQLIKEAEEPEMKEIRVEKNDPETLLKCLIMCNELLKHLSLSKGLGGTLNEICESLILPGITNVHPSVRNMAVLCIGCCALQNKDFARQHLPLLLQILQLDEVKVKNSALNAVFDMLLLFGMDILKSKPTNPDDSQCKAQENADEDISEQEKPGSVDENLTNEEVQEETATVNGILHLFSGFLDSEIAEIRTETAEGLVKLMFSGRLISAKLLSRLILLWYNPVTEEDTKLRHCLGVFFPIFAYSCRSNQECFAEAFLPTLQTLFNAPASSPLADVDVANVAELLVDLTRPSGLNPQNKQSQDYQAAMVHDGLAIKICNEILKDPTAPDVRIYAKALCSLELSRENSTDLLPLLDCAVEDVTDKVCERAIEKVRSQLRSGREEHRVSKETEPQVSKETED
# B4: Xenopus laevis CAP-H lacking the N-terminal 85 amino acids (CAP-H_ΔNt85) (domain or fragment, UniProt O13067 86-699)
# chain: TSLLPKLNNTQISDHYSTCIKLSQENKITTKNAFGLHLIDYMGDILKHKDSELTNFKVAAGTLDASAKIYAVRVDAVHADVYKVLGGLGKESQATEDTENQETDTGPQDGRKNPKRRKCSYKTIERNLNSINRSETERKSEIDPLFQKAAASFDEFSTAGVFLSTLKCHSYHSELHFDADVKPLSTAEETEPPSPGSMDSTELKSLFLQCVEKRPLCPSLSGFRFMQWNSDAQNENLSLLMDKFKKSDHVFDINAEVEDDFVESEAPVADEFDADVCEGMDAGDIGEFAEHREACRLERKGAQLTQIGNGDIGTMCLQLSSCPGEYSYFSPRTMSMWAGPEHWRFRPRQKASTDSDQQRVKKAKKVFELNFEDDIDFEVHFRKTRAATTLTKSTLESQNKKSTTLPADFHYDPDNIARMSLRPKDRIRKTTVQESVSEPEDDIGDYDYNNPNDTSNFCPALQAADSDDDDGAFLGPESNSAGFSAENQMNITSYGESNLVAGQKVNKIEIQYAKTAKKMDMKRLKSSMWSLLANCPESQEEMPSSKEEIDAALITDEQVFSSVTHGLQKRLPPVMAQNLSVPLAFACLLHLANEKNLKLQGMDDLSDVMIMQDD
# B5: Xenopus laevis CAP-H, full-length, S415A (protein, UniProt O13067 1-699)
# chain: B2 chain with S415A
# B6: Xenopus laevis CAP-H lacking the N-terminal 85 amino acids, S415A (domain or fragment, UniProt O13067 86-699)
# chain: B4 chain with S330A
# Molecular target: Xenopus laevis condensin I subunit CAP-C, 3xFLAG-tagged (X. laevis) (UniProt P50532)
# Assay: tandem affinity co-purification
row,Molecule,binding
1,"Xenopus laevis condensin I subunit CAP-D2, full-length (from UniProt Q9YHY6 1-1364)",binds
2,"Xenopus laevis condensin I subunit CAP-E, GST-tagged (from UniProt P50533 1-1203)",binds
3,Xenopus laevis CAP-D2 lacking the C-terminal 80 amino acids (CAP-D2_ΔCt80) (from UniProt Q9YHY6 1-1284) (domain or fragment),binds
4,B1,binds
5,B2,binds
6,B3,binds
7,B4,binds
8,B5,binds
9,B6,binds
